Reference: PMC9716578
Results are given in words; binding and its absence hold for the method and conditions named. Binding seen in cells or lysates may run through a third protein. Some entries that bind do so weakly or less than the wild type.

Amino acid sequences for entries named in this document (tags omitted).
UniProt C8YR32: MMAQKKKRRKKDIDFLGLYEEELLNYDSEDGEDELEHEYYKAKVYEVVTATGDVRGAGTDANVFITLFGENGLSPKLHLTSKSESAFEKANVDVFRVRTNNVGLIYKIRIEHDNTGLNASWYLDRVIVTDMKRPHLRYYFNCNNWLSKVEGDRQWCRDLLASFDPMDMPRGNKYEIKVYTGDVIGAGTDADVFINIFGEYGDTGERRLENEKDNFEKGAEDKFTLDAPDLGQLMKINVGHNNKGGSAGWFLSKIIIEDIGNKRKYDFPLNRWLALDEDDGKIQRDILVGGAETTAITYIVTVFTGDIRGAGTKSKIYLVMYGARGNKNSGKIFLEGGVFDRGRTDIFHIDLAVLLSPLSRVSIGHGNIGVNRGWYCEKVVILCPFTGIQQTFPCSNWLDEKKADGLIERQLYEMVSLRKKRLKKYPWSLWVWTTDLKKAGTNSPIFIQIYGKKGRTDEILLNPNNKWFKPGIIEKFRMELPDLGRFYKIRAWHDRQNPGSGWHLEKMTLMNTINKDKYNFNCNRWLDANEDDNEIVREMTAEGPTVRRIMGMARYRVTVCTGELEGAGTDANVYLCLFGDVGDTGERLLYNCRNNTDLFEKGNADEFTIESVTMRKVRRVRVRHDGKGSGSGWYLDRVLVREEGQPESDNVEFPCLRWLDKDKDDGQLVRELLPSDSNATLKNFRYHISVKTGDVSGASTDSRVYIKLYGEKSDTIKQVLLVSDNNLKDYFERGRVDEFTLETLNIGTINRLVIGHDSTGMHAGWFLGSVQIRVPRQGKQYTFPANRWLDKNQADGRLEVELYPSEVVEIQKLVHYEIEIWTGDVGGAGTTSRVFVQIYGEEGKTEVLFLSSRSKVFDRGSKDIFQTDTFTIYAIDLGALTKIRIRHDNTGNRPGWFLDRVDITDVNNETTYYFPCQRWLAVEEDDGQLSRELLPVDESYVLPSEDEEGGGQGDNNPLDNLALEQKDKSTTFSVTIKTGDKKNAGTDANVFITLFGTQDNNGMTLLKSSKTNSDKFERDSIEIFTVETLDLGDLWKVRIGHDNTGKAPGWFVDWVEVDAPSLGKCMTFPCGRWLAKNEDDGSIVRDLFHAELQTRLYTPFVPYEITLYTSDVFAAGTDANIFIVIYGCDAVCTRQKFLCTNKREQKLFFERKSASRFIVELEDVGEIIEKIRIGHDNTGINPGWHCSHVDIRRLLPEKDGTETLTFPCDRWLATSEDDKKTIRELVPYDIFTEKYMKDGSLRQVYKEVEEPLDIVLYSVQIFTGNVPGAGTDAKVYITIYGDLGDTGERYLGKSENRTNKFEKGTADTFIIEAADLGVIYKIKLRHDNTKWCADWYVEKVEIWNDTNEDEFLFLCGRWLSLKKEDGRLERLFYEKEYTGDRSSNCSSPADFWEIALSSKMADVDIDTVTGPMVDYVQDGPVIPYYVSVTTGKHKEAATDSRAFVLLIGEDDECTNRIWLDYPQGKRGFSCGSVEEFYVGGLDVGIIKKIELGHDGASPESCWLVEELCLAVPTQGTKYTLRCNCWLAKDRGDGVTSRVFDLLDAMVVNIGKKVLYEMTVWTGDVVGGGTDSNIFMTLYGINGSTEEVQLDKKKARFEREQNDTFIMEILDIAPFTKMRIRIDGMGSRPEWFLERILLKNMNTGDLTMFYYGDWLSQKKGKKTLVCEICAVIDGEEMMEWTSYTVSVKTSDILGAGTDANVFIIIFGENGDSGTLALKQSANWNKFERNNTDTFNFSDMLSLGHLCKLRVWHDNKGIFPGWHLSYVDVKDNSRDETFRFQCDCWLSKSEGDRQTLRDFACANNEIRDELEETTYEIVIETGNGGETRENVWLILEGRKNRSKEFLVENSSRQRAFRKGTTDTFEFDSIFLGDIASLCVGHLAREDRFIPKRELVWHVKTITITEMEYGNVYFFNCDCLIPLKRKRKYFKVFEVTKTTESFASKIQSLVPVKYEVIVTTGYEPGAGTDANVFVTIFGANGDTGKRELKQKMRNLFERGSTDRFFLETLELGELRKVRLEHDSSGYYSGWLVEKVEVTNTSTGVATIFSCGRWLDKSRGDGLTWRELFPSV
UniProt Q16665: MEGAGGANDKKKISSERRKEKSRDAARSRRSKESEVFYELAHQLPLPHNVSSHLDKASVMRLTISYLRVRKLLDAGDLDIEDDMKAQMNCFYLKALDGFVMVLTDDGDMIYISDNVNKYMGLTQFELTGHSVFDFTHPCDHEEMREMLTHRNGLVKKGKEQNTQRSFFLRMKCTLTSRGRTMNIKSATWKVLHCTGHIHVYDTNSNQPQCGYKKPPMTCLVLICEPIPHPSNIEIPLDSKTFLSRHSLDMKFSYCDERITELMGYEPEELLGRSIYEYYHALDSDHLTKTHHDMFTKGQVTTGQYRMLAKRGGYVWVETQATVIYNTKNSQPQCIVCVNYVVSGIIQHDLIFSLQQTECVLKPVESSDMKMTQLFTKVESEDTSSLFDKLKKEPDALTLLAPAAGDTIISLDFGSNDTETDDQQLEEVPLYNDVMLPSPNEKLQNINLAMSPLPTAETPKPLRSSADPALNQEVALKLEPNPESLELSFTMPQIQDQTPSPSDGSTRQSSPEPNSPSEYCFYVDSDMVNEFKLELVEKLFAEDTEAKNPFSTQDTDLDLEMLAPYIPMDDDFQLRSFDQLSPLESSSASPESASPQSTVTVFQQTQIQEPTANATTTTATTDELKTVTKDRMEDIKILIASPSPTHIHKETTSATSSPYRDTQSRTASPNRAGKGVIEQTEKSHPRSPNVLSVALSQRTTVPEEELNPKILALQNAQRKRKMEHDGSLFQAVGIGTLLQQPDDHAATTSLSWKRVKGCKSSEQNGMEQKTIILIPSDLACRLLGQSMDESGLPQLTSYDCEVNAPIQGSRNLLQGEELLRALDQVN

Molecular target: MYC-tagged LOXHD1 (pcDNA3-LOXHD1-Myc) (mouse) (UniProt C8YR32)
Assay: co-IP; HEK293T co-transfected with HA-HIF1α and Myc-LOXHD1 (1 to 2), cultured under hypoxia (1% O2); 500 μg whole cell lysate in IP buffer (20 mM Tris pH7.5, 150 mM NaCl, 1% Triton-X 100) immunoprecipitated with MYC-tag antibody, protein G Dynabeads, washes with 300 mM NaCl; blots with anti-HA and …

binding: binds
Substance: HA-tagged HIF1α (pCDNA-HA-HIF1A) (from UniProt Q16665 1-826)
